# From patent publication US12286424B2, “Small molecule inhibitors of galectin-3” (BRISTOL-MYERS SQUIBB COMPANY, priority 2020, dated 2025)
# Protein sequences, listed by entry. Tags and fused reporters are not part of them.
# UniProt P17931, whole entry: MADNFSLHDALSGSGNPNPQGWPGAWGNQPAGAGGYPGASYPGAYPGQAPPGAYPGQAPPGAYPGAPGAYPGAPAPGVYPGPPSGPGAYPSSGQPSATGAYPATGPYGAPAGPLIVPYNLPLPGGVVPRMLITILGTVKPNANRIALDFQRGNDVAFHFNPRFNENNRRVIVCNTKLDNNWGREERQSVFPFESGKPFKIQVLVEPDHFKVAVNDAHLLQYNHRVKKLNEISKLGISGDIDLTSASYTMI
# Structures were worked out from names or drawings and are uncertain.
# Target: hGalectin-3 (Homo sapiens, UniProt P17931)
# Test: Gal-3 ELISA assay (hGalectin-3 neutralization binding to asialofetuin)
# Conditions: read-out: hGal-3 IC50; Table 2
compound,measurement,value
CO[C@@H]1[C@@H](n2cc(-c3cccc(F)c3)nn2)[C@@H](O)[C@@H](CO)O[C@H]1C(=O)N1C[C@@H]2C[C@H]1CN2c1ccc2c(c1)OCO2,IC50,200 nM
